Data as given in paper PMC4747173.

Protein sequences, listed by entry. Tags and fused reporters are not part of them.
UniProt O14777: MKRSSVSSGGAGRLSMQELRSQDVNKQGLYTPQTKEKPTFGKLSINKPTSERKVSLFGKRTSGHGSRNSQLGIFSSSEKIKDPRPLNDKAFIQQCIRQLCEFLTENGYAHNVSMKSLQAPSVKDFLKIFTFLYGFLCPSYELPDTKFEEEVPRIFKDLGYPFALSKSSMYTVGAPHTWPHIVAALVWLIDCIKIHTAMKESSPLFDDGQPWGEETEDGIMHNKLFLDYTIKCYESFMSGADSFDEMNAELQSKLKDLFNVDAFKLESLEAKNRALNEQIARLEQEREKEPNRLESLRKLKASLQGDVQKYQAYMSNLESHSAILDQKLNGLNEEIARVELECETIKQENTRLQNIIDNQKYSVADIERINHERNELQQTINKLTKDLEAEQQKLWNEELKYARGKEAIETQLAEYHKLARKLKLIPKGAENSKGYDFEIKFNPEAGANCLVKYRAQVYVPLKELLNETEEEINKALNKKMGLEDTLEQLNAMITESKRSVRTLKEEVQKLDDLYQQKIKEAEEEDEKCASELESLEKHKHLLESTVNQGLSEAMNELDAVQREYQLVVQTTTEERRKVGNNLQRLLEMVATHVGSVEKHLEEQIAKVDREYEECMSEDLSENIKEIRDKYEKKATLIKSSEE
UniProt Q9GZV5: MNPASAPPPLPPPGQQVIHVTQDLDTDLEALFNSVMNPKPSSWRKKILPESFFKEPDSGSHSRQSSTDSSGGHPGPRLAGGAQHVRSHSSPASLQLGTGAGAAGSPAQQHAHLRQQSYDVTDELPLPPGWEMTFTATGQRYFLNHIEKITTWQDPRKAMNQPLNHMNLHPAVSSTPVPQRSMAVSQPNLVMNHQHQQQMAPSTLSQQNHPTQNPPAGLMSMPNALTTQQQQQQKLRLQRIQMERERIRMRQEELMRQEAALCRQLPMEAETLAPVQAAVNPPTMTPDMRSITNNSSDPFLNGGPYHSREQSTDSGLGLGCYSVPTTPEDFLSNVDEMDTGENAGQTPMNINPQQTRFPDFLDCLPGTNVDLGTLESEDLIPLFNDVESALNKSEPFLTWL
UniProt Q03135: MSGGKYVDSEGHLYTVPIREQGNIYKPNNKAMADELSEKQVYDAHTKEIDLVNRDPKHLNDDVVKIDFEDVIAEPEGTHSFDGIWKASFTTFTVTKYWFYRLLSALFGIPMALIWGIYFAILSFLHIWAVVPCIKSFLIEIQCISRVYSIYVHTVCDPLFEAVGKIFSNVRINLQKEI
UniProt O75901: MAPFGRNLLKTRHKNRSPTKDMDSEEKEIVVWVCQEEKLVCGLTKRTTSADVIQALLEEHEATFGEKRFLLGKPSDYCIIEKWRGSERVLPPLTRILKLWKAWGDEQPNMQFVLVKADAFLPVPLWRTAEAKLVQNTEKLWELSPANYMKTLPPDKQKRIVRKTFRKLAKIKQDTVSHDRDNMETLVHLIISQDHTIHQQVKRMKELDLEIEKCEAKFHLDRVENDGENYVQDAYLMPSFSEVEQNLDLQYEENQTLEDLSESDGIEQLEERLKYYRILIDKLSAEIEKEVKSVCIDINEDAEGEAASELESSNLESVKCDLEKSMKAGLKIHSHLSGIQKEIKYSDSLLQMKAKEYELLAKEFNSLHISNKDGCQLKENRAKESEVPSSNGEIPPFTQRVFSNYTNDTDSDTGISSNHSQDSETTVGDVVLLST
UniProt P36873: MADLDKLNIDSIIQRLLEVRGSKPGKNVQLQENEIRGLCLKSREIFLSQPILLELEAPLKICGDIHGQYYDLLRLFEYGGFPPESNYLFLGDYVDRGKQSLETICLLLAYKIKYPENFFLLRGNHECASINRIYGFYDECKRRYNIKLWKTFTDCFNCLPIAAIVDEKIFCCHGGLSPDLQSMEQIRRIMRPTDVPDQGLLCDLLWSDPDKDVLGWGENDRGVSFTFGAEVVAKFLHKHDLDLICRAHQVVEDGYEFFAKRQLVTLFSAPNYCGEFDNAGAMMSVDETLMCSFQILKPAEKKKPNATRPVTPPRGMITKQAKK
UniProt P63151: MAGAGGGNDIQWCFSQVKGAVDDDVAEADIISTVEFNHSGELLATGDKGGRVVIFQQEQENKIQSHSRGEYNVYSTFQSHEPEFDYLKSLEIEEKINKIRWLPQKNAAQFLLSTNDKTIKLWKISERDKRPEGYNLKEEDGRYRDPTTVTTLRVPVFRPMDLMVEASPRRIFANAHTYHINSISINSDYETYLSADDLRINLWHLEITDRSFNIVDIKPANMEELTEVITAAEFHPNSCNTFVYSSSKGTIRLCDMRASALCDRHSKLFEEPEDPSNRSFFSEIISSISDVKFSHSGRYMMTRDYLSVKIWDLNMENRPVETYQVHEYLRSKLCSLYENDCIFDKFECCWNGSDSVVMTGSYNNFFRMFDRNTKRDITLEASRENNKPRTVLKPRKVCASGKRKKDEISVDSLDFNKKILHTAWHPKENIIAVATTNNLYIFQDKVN
UniProt Q8TEW0: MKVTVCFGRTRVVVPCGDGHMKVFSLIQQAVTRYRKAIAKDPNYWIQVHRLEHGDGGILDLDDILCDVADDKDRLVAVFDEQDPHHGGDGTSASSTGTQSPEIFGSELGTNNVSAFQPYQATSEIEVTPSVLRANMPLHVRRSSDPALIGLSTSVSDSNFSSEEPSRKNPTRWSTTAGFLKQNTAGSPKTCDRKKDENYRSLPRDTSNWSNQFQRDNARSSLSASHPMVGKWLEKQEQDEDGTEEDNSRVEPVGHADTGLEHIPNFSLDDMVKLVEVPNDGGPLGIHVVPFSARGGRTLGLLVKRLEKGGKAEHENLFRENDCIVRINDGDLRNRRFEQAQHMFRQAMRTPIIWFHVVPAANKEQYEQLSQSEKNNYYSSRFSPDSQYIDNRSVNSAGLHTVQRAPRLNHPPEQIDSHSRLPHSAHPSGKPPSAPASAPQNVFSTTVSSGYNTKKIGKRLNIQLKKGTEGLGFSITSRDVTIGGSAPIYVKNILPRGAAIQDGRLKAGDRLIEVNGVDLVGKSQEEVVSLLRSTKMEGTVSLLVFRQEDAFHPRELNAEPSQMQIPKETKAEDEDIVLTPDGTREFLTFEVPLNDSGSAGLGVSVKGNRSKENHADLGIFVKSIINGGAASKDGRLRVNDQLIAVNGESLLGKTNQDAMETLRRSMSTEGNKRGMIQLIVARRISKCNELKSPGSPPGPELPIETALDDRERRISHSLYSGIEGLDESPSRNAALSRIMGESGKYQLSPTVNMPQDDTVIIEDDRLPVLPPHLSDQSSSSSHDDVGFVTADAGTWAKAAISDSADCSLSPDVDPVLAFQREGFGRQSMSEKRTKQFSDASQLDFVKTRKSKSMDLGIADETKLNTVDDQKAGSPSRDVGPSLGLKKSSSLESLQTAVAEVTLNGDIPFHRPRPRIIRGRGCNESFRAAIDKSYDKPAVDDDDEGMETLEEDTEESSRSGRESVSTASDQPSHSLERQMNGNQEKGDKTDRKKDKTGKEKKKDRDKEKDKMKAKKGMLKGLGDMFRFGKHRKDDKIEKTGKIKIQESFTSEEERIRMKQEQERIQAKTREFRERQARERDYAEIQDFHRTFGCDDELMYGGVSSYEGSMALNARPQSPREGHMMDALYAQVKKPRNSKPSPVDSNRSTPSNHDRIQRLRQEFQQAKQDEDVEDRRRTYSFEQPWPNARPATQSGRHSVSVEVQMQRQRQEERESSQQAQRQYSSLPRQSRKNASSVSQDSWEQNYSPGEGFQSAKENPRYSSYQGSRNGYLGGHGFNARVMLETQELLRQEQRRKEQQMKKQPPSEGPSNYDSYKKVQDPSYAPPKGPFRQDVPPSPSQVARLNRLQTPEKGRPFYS
UniProt P62136: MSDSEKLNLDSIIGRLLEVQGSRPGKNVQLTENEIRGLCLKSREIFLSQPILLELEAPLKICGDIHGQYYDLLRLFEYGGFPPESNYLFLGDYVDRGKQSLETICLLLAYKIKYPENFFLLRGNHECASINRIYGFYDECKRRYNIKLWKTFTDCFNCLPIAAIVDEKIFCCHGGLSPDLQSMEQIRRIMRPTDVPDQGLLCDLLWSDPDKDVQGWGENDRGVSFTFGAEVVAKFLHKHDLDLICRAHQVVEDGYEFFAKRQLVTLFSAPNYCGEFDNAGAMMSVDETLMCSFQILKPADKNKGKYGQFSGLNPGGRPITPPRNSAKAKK
UniProt P62140: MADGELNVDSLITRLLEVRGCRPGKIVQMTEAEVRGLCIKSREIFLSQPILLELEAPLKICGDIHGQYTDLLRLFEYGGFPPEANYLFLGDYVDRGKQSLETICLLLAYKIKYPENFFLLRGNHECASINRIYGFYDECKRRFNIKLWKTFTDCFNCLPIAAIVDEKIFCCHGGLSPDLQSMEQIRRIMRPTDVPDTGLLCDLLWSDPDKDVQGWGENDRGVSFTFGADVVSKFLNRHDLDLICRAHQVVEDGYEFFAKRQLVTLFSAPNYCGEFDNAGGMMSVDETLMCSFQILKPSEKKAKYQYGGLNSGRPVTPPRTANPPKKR
UniProt Q8NI35: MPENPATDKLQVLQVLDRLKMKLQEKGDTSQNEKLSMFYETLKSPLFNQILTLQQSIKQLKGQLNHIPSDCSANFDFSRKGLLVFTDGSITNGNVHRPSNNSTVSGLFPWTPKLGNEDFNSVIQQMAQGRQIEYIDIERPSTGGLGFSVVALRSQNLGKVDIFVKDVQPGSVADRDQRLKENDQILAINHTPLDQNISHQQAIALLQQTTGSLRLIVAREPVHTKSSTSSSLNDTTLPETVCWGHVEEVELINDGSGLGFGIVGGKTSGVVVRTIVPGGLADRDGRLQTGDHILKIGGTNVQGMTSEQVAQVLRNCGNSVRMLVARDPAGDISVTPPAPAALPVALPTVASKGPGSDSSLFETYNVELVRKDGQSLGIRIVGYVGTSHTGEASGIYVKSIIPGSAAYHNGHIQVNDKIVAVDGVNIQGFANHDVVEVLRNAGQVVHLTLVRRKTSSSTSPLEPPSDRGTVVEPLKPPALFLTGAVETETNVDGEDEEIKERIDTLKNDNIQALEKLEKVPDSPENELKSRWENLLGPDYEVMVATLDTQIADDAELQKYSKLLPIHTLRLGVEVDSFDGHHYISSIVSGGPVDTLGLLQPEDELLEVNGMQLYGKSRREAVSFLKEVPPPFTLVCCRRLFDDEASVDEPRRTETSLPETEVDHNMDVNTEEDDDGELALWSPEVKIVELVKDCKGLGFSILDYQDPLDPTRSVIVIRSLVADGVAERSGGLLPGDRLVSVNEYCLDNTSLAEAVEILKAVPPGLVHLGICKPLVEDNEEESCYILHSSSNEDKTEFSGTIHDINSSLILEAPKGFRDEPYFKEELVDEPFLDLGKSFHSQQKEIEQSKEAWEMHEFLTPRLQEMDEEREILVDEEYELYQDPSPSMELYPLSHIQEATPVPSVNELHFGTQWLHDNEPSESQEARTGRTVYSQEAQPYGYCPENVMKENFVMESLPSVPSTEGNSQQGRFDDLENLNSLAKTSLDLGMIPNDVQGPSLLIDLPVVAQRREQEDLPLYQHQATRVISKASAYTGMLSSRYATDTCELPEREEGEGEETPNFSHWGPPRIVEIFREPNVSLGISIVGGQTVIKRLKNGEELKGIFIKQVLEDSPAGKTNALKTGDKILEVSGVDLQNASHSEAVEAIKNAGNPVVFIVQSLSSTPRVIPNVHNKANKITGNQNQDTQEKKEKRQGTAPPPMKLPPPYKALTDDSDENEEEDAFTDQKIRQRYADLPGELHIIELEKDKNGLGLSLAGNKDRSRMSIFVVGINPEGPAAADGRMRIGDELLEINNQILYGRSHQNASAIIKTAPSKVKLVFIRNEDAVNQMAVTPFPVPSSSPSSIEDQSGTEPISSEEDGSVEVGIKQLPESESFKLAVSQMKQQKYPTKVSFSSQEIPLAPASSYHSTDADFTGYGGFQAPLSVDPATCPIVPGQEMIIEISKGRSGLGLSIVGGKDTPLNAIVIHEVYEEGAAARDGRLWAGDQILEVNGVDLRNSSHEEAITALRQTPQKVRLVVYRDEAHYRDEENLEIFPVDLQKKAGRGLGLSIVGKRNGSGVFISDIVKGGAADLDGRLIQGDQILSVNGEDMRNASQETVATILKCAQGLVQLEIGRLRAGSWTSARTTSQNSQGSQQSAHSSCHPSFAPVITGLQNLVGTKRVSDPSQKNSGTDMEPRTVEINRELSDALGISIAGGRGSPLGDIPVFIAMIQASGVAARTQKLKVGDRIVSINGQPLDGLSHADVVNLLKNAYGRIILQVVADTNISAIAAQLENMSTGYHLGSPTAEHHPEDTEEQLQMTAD
UniProt Q8NBT2: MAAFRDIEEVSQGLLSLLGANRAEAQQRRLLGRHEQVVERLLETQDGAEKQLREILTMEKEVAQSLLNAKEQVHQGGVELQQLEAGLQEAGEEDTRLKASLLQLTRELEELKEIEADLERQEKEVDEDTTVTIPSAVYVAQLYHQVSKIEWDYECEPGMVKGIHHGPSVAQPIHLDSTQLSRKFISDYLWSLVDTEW

T1: FLAG-HA-ASPP1 (stably expressed in HeLa cells) (UniProt Q96KQ4)
T1 sequence: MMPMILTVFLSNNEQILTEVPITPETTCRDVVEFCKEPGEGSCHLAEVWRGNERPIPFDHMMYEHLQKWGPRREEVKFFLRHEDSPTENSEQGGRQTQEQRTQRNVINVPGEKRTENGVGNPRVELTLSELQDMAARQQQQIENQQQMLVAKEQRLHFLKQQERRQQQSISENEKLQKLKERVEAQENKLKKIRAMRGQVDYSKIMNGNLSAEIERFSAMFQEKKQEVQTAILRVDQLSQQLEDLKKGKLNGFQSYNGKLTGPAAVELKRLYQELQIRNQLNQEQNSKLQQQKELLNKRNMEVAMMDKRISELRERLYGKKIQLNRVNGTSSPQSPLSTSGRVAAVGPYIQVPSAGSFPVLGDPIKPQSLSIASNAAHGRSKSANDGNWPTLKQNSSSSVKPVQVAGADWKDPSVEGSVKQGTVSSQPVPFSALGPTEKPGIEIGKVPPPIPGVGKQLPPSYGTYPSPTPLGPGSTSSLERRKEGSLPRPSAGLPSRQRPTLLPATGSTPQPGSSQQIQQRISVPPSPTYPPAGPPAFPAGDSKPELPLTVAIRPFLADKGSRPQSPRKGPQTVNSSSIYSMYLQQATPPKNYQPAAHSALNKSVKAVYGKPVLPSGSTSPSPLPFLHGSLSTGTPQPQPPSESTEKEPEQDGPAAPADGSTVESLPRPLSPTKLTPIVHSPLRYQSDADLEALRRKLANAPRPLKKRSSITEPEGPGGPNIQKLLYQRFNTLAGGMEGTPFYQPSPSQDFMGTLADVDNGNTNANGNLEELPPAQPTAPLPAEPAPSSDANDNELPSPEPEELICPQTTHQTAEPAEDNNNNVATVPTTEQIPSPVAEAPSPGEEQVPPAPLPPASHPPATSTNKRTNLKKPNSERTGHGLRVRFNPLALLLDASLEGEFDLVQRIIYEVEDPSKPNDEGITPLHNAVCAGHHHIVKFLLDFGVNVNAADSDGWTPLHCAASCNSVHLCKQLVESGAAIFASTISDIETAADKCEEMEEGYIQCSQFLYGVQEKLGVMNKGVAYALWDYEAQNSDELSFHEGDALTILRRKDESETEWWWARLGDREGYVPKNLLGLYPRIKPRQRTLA

T2: FLAG-HA-ASPP2 (stably expressed in HeLa cells) (UniProt Q13625)
T2 sequence: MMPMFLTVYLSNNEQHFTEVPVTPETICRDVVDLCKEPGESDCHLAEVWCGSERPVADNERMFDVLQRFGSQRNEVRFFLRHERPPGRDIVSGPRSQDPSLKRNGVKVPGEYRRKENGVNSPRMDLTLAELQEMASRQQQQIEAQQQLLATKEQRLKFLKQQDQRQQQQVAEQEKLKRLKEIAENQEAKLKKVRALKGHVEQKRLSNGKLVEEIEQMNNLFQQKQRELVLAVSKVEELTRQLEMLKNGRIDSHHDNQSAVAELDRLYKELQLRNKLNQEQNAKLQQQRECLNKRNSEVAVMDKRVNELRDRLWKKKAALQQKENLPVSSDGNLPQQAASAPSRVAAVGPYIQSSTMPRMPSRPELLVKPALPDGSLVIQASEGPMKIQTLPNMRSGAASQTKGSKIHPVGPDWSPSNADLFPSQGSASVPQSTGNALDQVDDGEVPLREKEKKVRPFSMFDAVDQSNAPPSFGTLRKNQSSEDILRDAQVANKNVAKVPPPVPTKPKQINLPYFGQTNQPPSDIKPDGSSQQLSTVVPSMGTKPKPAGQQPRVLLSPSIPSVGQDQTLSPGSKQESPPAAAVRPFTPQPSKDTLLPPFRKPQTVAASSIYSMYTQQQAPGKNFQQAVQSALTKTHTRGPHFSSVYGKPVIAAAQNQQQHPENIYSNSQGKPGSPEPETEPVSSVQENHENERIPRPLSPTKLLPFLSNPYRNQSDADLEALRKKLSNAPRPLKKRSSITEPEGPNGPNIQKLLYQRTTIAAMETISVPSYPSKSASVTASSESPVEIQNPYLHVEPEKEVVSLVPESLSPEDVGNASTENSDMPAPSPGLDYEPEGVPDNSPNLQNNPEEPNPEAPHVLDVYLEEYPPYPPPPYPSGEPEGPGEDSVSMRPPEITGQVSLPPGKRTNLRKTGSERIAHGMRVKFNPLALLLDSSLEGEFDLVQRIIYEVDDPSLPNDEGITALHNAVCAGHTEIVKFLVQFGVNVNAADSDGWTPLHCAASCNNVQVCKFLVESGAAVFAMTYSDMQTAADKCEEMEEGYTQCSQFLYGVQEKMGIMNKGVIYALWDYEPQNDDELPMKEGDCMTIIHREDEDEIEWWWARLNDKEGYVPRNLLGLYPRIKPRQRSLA


What was measured:
[1] = target: T1, FLAG-HA-ASPP1 (stably expressed in HeLa cells); assay: affinity purification with mass spectrometry; tandem affinity purification (anti-FLAG M2 agarose, FLAG peptide elution, then anti-HA agarose, HA peptide elution) from HeLa cells stably expressing FH-ASPP1 or FH-ASPP2; lysis in BC100 buffer (20 mM Tris-Cl pH 7.9, 100 mM NaCl, 0.2 mM EDTA, 20% glycerol) with 0.2% Triton X-100; proteins found in MOCK HeLa cells omitted
[2] = target: T2, FLAG-HA-ASPP2 (stably expressed in HeLa cells); assay: as above
[3] = target: FLAG-HA-Hec1 (stably expressed in HeLa cells) (UniProt O14777); assay: affinity purification with mass spectrometry; tandem affinity purification of the Hec1-containing complex from HeLa cells stably expressing FLAG-HA (FH)-Hec1; SDS-PAGE, mass spectrometry
[4] = target: FLAG-HA-Hec1 (stably expressed in HeLa cells) (UniProt O14777); assay: as above; remark: listed apart in the source

| binding [1] | binding [2] | binding [3] | binding [4] | Molecule |
| --- | --- | --- | --- | --- |
| binds | binds |  |  | Nuf2 (endogenous) (from UniProt Q9BZD4 1-464) |
| binds | binds |  |  | Hec1 (endogenous) (from UniProt O14777 1-642) |
| binds | binds |  |  | TAZ (endogenous) (from UniProt Q9GZV5 1-400) |
| binds | binds |  |  | PCM1 (endogenous) (from UniProt Q15154 1-2024) |
| binds | binds |  |  | CAV1 (endogenous) (from UniProt Q03135 1-178) |
| binds | binds |  |  | RASSF9 (endogenous) (from UniProt O75901 1-435) |
| binds | binds |  |  | CENP-F (endogenous) (from UniProt P49454 1-3114) |
| binds | binds | no binding |  | PP1γ catalytic subunit (endogenous) (from UniProt P36873 1-323) (enzyme) |
|  |  | binds |  | PP2A regulatory subunit B55α (endogenous) (from UniProt P63151 1-447) |
| binds | binds |  |  | KNL-1 (endogenous) (from UniProt Q8NG31 1-2342) |
|  | binds |  |  | Par-3 (endogenous) (from UniProt Q8TEW0 1-1356) |
| binds |  | binds |  | PP1α catalytic subunit (endogenous) (from UniProt P62136 1-330) (enzyme) |
| binds | binds |  |  | C-Nap1 (endogenous) (from UniProt Q9BV73 1-2442) |
|  | binds |  |  | MAGI2 (endogenous) (from UniProt Q86UL8 1-1455) |
| binds | binds | no binding |  | PP1β catalytic subunit (endogenous) (from UniProt P62140 1-327) (enzyme) |
|  | binds |  |  | INDAL (endogenous) (from UniProt Q8NI35 1-1801) |
| binds | binds |  |  | Spc24 (endogenous) (from UniProt Q8NBT2 1-197) |
|  |  |  | binds | ASPP1 (endogenous) (protein, UniProt Q96KQ4 1-1090) MMPMILTVFLSNNEQILTEVPITPETTCRDVVEFCKEPGEGSCHLAEVWRGNERPIPFDHMMYEHLQKWGPRREEVKFFLRHEDSPTENSEQGGRQTQEQRTQRNVINVPGEKRTENGVGNPRVELTLSELQDMAARQQQQIENQQQMLVAKEQRLHFLKQQERRQQQSISENEKLQKLKERVEAQENKLKKIRAMRGQVDYSKIMNGNLSAEIERFSAMFQEKKQEVQTAILRVDQLSQQLEDLKKGKLNGFQSYNGKLTGPAAVELKRLYQELQIRNQLNQEQNSKLQQQKELLNKRNMEVAMMDKRISELRERLYGKKIQLNRVNGTSSPQSPLSTSGRVAAVGPYIQVPSAGSFPVLGDPIKPQSLSIASNAAHGRSKSANDGNWPTLKQNSSSSVKPVQVAGADWKDPSVEGSVKQGTVSSQPVPFSALGPTEKPGIEIGKVPPPIPGVGKQLPPSYGTYPSPTPLGPGSTSSLERRKEGSLPRPSAGLPSRQRPTLLPATGSTPQPGSSQQIQQRISVPPSPTYPPAGPPAFPAGDSKPELPLTVAIRPFLADKGSRPQSPRKGPQTVNSSSIYSMYLQQATPPKNYQPAAHSALNKSVKAVYGKPVLPSGSTSPSPLPFLHGSLSTGTPQPQPPSESTEKEPEQDGPAAPADGSTVESLPRPLSPTKLTPIVHSPLRYQSDADLEALRRKLANAPRPLKKRSSITEPEGPGGPNIQKLLYQRFNTLAGGMEGTPFYQPSPSQDFMGTLADVDNGNTNANGNLEELPPAQPTAPLPAEPAPSSDANDNELPSPEPEELICPQTTHQTAEPAEDNNNNVATVPTTEQIPSPVAEAPSPGEEQVPPAPLPPASHPPATSTNKRTNLKKPNSERTGHGLRVRFNPLALLLDASLEGEFDLVQRIIYEVEDPSKPNDEGITPLHNAVCAGHHHIVKFLLDFGVNVNAADSDGWTPLHCAASCNSVHLCKQLVESGAAIFASTISDIETAADKCEEMEEGYIQCSQFLYGVQEKLGVMNKGVAYALWDYEAQNSDELSFHEGDALTILRRKDESETEWWWARLGDREGYVPKNLLGLYPRIKPRQRTLA |
|  |  |  | binds | ASPP2 (endogenous) (protein, UniProt Q13625 1-1128) MMPMFLTVYLSNNEQHFTEVPVTPETICRDVVDLCKEPGESDCHLAEVWCGSERPVADNERMFDVLQRFGSQRNEVRFFLRHERPPGRDIVSGPRSQDPSLKRNGVKVPGEYRRKENGVNSPRMDLTLAELQEMASRQQQQIEAQQQLLATKEQRLKFLKQQDQRQQQQVAEQEKLKRLKEIAENQEAKLKKVRALKGHVEQKRLSNGKLVEEIEQMNNLFQQKQRELVLAVSKVEELTRQLEMLKNGRIDSHHDNQSAVAELDRLYKELQLRNKLNQEQNAKLQQQRECLNKRNSEVAVMDKRVNELRDRLWKKKAALQQKENLPVSSDGNLPQQAASAPSRVAAVGPYIQSSTMPRMPSRPELLVKPALPDGSLVIQASEGPMKIQTLPNMRSGAASQTKGSKIHPVGPDWSPSNADLFPSQGSASVPQSTGNALDQVDDGEVPLREKEKKVRPFSMFDAVDQSNAPPSFGTLRKNQSSEDILRDAQVANKNVAKVPPPVPTKPKQINLPYFGQTNQPPSDIKPDGSSQQLSTVVPSMGTKPKPAGQQPRVLLSPSIPSVGQDQTLSPGSKQESPPAAAVRPFTPQPSKDTLLPPFRKPQTVAASSIYSMYTQQQAPGKNFQQAVQSALTKTHTRGPHFSSVYGKPVIAAAQNQQQHPENIYSNSQGKPGSPEPETEPVSSVQENHENERIPRPLSPTKLLPFLSNPYRNQSDADLEALRKKLSNAPRPLKKRSSITEPEGPNGPNIQKLLYQRTTIAAMETISVPSYPSKSASVTASSESPVEIQNPYLHVEPEKEVVSLVPESLSPEDVGNASTENSDMPAPSPGLDYEPEGVPDNSPNLQNNPEEPNPEAPHVLDVYLEEYPPYPPPPYPSGEPEGPGEDSVSMRPPEITGQVSLPPGKRTNLRKTGSERIAHGMRVKFNPLALLLDSSLEGEFDLVQRIIYEVDDPSLPNDEGITALHNAVCAGHTEIVKFLVQFGVNVNAADSDGWTPLHCAASCNNVQVCKFLVESGAAVFAMTYSDMQTAADKCEEMEEGYTQCSQFLYGVQEKMGIMNKGVIYALWDYEPQNDDELPMKEGDCMTIIHREDEDEIEWWWARLNDKEGYVPRNLLGLYPRIKPRQRSLA |

Like-named read-outs stand apart in the source and are kept apart here. These are yes or no findings as the source states them, for the method shown. Binding seen in cells or lysates may run through a third protein. Here binding means that the protein was enriched with, or labelled near, the bait; the list need not be complete. For some of these results: No binding means not detected with the bait. For some of these results: Sequences can lack the tags named with a protein.
